Results as given in paper PMC9008698.
These are yes or no findings as the source states them, for the method shown. Binding seen in cells or lysates may run through a third protein. Some entries that bind do so weakly or less than the wild type.

Sequences of proteins named here, by UniProt entry; tags and fusion partners are left off.
UniProt Q04206: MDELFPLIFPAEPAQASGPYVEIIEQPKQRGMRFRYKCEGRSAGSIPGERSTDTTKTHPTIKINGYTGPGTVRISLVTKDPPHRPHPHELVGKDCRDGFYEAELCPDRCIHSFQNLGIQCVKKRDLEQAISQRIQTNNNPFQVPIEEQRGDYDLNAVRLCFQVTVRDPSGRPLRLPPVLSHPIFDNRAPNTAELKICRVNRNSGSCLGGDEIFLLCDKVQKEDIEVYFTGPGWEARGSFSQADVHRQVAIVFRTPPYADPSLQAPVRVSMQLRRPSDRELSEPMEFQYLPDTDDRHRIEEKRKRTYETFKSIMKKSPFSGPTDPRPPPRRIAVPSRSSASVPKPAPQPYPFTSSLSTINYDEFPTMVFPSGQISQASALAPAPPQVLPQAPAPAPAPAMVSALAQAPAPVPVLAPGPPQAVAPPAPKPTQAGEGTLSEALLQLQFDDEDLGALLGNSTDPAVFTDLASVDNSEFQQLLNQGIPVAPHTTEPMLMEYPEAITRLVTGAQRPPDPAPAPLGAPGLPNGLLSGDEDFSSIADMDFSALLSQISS

Key:
Experiment in all cases: co-IP; HEK293T cells co-transfected with both partners; lysis in 0.5% Triton X-100, 20 mM Tris-HCl pH 7.5, 150 mM NaCl, 10% glycerol, 1 mM EDTA; anti-Flag agarose or anti-HA magnetic beads 4 h at 4°C; washes with 300 mM NaCl; immunoblotting
IKKα = molecular target: T1, IKKα (UniProt O15111)
T1 sequence: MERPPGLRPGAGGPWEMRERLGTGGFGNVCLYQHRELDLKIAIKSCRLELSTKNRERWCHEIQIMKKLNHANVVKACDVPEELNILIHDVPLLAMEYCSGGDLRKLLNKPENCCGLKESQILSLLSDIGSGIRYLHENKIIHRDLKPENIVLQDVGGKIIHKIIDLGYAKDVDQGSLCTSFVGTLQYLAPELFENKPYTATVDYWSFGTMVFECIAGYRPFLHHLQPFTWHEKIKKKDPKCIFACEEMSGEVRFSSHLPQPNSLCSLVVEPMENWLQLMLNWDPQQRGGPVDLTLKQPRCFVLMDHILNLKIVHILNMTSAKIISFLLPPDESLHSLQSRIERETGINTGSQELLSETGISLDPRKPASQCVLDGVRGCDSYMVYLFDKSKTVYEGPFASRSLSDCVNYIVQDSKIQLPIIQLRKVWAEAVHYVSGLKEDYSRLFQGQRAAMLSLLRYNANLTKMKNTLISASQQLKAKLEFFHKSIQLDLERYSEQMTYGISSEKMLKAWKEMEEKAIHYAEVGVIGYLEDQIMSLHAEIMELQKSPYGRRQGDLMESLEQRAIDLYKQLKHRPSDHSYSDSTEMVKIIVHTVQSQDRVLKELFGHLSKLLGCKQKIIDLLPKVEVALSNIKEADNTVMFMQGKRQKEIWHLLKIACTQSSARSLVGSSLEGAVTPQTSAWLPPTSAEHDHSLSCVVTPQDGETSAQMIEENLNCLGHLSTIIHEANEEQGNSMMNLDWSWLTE

TAB1 = molecular target: T2, TAB1 (UniProt Q15750)
T2 sequence: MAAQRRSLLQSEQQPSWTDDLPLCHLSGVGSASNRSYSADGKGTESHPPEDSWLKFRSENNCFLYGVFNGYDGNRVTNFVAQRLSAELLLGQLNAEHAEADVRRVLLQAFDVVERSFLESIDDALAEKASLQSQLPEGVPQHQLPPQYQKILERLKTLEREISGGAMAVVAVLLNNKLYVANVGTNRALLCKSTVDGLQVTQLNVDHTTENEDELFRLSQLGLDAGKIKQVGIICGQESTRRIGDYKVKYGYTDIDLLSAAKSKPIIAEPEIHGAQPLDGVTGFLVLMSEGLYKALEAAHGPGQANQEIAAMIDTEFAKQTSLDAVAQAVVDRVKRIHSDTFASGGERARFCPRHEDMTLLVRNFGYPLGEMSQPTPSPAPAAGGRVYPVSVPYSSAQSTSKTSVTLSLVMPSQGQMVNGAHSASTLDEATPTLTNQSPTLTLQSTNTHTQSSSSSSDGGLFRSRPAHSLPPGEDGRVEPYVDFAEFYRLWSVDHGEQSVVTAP

[1] = molecular target: T3, TRAF2-N (N-terminal zinc-binding domain; residues 1–271) (UniProt Q12933)
T3 sequence: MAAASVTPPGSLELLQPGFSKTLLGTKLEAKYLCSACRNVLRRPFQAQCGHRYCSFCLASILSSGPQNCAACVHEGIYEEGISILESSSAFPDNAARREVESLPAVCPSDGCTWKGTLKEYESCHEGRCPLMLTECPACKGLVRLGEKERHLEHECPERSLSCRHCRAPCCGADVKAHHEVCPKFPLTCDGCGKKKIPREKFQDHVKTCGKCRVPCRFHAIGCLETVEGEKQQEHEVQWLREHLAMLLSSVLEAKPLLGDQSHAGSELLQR

[2] = molecular target: T4, TRAF6-C (C-terminal TRAF domain; residues 262–522) (UniProt Q9Y4K3)
T4 sequence: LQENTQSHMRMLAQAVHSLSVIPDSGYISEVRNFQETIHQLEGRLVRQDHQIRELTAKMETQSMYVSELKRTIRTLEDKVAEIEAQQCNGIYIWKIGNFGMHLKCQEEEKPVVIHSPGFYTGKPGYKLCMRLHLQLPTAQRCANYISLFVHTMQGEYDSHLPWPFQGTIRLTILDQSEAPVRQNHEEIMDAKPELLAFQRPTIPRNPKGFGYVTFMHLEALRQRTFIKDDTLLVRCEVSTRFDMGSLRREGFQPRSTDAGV

p65 = p65 (UniProt Q04206)

B1: KIZ (full length, co-transfected in HEK293T) (protein, UniProt Q2M2Z5 1-673)
chain: MSRTLASAVPLSSPDYYERLGQLQHGLRDSEKKRLDLEKKLYEYNQSDTCRVKLKYVKLKNYLKEICESEKKAHTRNQEYLKRFERVQAHVVHFTTNTEKLQKLKLEYETQIKKMLCSKDSLGLKEELTDEDREKVAVHEGINSGTAMSRGLYQPATIFMGRQMSAILSMRDFSTEHKSPQPTKNFSIPDPHSHRQTAQSSNVTDSCVVQTSNDTQCLNKSDNIDGKASLQIGEKMPVTASVLSEEEQTHCLEIGSNTRHGKSNLSEGKKSAELNSPLRERLSPENRTTDLKCDSSSGSEGEILTREHIEVEEKRASPPVSPIPVSEYCESENKWSQEKHSPWEGVSDHLAHREPKSQKPFRKMQEEEEESWSTSSDLTISISEDDLILESPEPQPNPGGKMEGEDGIEALKLIHAEQERVALSTEKNCILQTLSSPDSEKESSTNAPTREPGQTPDSDVPRAQVGQHVATLKEHDNSVKEEATALLRKALTEECGRRSAIHSSESSCSLPSILNDNSGIKEAKPAVWLNSVPTREQEVSSGCGDKSKKENVAADIPITETEAYQLLKKATLQDNTNQTENRFQKTDASVSHLSGLNIGSGAFETKTANKIASEASFSSSEGSPLSRHENKKKPVINLKSNALWDESDDSNSEIEAALRPRNHNTDDSDDFYD
binding (IKKα): no binding
binding (TAB1): no binding
binding [1]: binds
binding [2]: binds
binding (p65): no binding
